Measurements taken from PubChem BioAssay AID2685 (National Center for Advancing Translational Sciences (NCATS), 2010).
The list shows a part of the results. The main result of the screen is listed elsewhere. These columns were measured beside it and carry no call. The list favours compounds with an active or inconclusive main result. Potencies come from curve fits of mixed quality, noted in brackets.

Test: qHTS Assay for Lipid Storage Modulators in Drosophila S3 Cells;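 for cell number change: cells counted by Cell Tracker Red CMTPX staining in the red channel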
Details: BODIPY lipid droplet fluorescence, 18-24 h; for cell number change: measured here: cell count max response, cells fed with added oleic acid
Procedure, shortened: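 Drosophila S3 cells loaded with oleic acid (400 uM, as added) and compounds at several concentrations; lipid droplets imaged by 488-nm laser-scanning cytometry, 500–530 nm intensity and object ratio to cell channel. Percent activity normalized to 20 uM Triacsin C.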

[1] = measured here: cell number channel AC50, cells fed with added oleic acid
[2] = measured here: lipid fluorescence (Fed channel) AC50, cells fed with added oleic acid

SMILES	cell number change [%]	AC50 [1]	AC50 [2]
Cc1cc(Br)ccc1OCCNCc1ccccc1	-47.1	0.731 µM [falling, full curve]	0.731 µM [falling, full curve]
CS(=O)(=O)N1CCN(c2ccccc2NC(=O)CSc2ccc(Cl)cc2)CC1	-24.7	–	0.92 µM [rising, partial curve]
O=C(NCC1(N2CCCCC2)CCCCC1)c1ccc(NS(=O)(=O)c2ccccc2)cc1	-56.2	0.291 µM [falling, full curve, poor fit]	1.16 µM [falling, partial curve, poor fit]
O=[N+]([O-])c1ccc(NC(=S)NCCc2ccc(F)cc2)cc1	-60.6	16.4 µM [falling, partial curve]	14.6 µM [falling, partial curve]
Cc1cc(Cl)ccc1NC(=O)COC(=O)c1c(C)noc1C	-15.5	–	0.116 µM [rising, full curve, poor fit]
Cc1ccc(NC(=O)c2ccc3c(=O)n4c(nc3c2)CCC4)cc1F	-13.8	–	0.0366 µM [falling, full curve, poor fit]
Cc1ccc2c(C)c(C(=O)Nc3nnc(C)s3)oc2c1	-3.84	–	0.164 µM [falling, full curve, poor fit]
Cc1cc2cc(CCNS(=O)(=O)c3ccc(F)cc3)c(=O)[nH]c2cc1C	12.1	–	16.4 µM [rising, single point]
O=C1CN(C(=O)c2ccco2)C(c2ccccc2)c2cc(Cl)ccc2N1 (centres undefined)	62.5	7.31 µM [rising, partial curve]	–
Cc1cc(C)c(CNC(=O)c2cc(C3CC3)nc3c2cnn3C(C)C)c(=O)[nH]1	34.5	18.4 µM [rising, single point]	32.6 µM [rising, partial curve]
Cc1ccccc1NCC(=O)c1ccc(Br)cc1	3.24	–	–
C#CC(C)(C)NC(=O)CSc1nc2c(c(=O)n(C)c(=O)n2C)n1CCCC	30.5	9.2 µM [rising, partial curve, poor fit]	11.6 µM [rising, partial curve, poor fit]
O=C(O)CCCN1C(=O)C2C3c4ccccc4C(c4ccccc43)[C@@H]2C1=O (some centres undefined)	-23.7	–	29.1 µM [falling, single point]
O=C(O)c1cc2c(cc1NC(=O)C1CCCC1)OCCO2	-0.478	–	0.82 µM [rising, partial curve]
OC(c1cccnc1)c1cccs1 (centres undefined)	2.22	–	–
COc1ccc(CCNC(=O)COC(=O)CSc2ccc([N+](=O)[O-])cc2)cc1OC	11.2	–	–
O=C(Nc1cccnc1)C1CC(c2ccccc2O)=NO1 (centres undefined)	–	0.231 µM [falling, full curve, poor fit]	1.3 µM [falling, full curve]
COc1ccccc1NC(=S)N(Cc1ccc(Cl)cc1)CC1CCC(C(=O)O)CC1 (centres undefined)	–	–	0.206 µM [falling, partial curve, poor fit]
CN(C)c1nc(-c2ccccc2)cc(C(F)(F)F)c1C#N	-20.5	–	–
CCC(CC)c1nn2c(N)c(/C=C3\C(C)=Nc4ccccc43)c(=O)nc2s1	-6.2	–	0.461 µM [rising, single point]

A second format for some results above.
SMILES | cell number change [%] | AC50 [1] | AC50 [2]
Cc1cc(Cl)ccc1NC(=O)COC(=O)c1c(C)noc1C | -15.5 | – | 0.116 µM [rising, full curve, poor fit]
COc1ccccc1NC(=S)N(Cc1ccc(Cl)cc1)CC1CCC(C(=O)O)CC1 (centres undefined) | – | – | 0.206 µM [falling, partial curve, poor fit]

(cont.)

SMILES	cell number change [%]	AC50 [1]	AC50 [2]
C[C@H](NC(=O)c1ccco1)C(=O)Nc1ccc(C#N)cc1	14.1	–	–
Cc1cc(NS(=O)(=O)c2ccc(NC(=S)NC(=O)c3ccc(F)cc3)cc2)no1	5.63	5.17 µM [falling, single point]	6.51 µM [falling, single point]
O=C(CSc1nnc(C2CC2)n1Cc1ccco1)NCC(F)(F)F	7.17	–	–
O=C(CN1CCCC1)Nc1ccc(Oc2ccc(NC(=O)CN3CCCC3)cc2)cc1	–	–	0.13 µM [falling, full curve, poor fit]
Cc1nc2nc(C)c(CCC(=O)N3CCN(c4ccccn4)CC3)c(C)n2n1	24.5	–	9.2 µM [rising, partial curve]
O=C(CNC(=O)c1ccccc1)N/N=C/c1ccc([N+](=O)[O-])s1	-25.1	–	29.1 µM [falling, single point]
COCCNC(=O)CSc1nccn1Cc1ccc2c(c1)OCO2	-17.2	0.0058 µM [falling, full curve, poor fit]	18.4 µM [falling, single point]
COC(=O)Nc1ccc(S(=O)(=O)N2CCC(C)CC2)cc1	47	–	–
Cc1ccc(S(=O)(=O)N2CCC(=O)N(CCOCc3cccc(C)c3)CC2)cc1	35.8	10.3 µM [rising, single point]	0.58 µM [rising, single point]
CCN(c1ccccc1)S(=O)(=O)c1c(C)noc1C	6.43	–	–
Cc1cccc(N=C2Sc3nc4c(C)c(C)ccc4cc3CN2CCN2CCOCC2)c1	-26.3	–	6.51 µM [falling, single point]
Cc1cc(C)c(-c2csc(NC(=O)C3=NN(c4ccccc4)C(=O)CC3)n2)c(C)c1	-27.8	–	16.4 µM [falling, partial curve]
CCc1ccccc1NC(=O)/C(C#N)=C\c1ccc(Sc2ccccc2)o1	-17.9	–	32.6 µM [falling, single point]
Cc1n[nH]c(C)c1CCCCOc1ccccc1	39.9	20.6 µM [rising, single point]	–
CCN1CCc2nc(SCC(=O)Nc3ccc(OC)cc3)c(C#N)cc2C1	8.6	–	6.51 µM [rising, partial curve]
CCOc1ccc(S(=O)(=O)N2CCOCC2)cc1NC(=O)CSCC(=O)Nc1ccc(C)cc1	34.7	14.6 µM [rising, partial curve, poor fit]	–
CCn1ccnc1CN(C)Cc1cn(-c2cc(C)ccc2C)nc1-c1ccccc1	-22.9	–	–
COc1ccc(C)cc1S(=O)(=O)N1CCCC(C(=O)N2CCN(c3ccccc3F)CC2)C1 (centres undefined)	-33.8	–	–
O=C(NNS(=O)(=O)c1ccc(F)cc1)c1cccc(O)c1	-1.06	–	0.231 µM [rising, full curve]
